Our source for the binding values is article PMC11303004.

Amino acid sequences for entries named in this document (tags omitted). A change or cut given only in a name is not applied to a line headed by its entry.
UniProt P38038: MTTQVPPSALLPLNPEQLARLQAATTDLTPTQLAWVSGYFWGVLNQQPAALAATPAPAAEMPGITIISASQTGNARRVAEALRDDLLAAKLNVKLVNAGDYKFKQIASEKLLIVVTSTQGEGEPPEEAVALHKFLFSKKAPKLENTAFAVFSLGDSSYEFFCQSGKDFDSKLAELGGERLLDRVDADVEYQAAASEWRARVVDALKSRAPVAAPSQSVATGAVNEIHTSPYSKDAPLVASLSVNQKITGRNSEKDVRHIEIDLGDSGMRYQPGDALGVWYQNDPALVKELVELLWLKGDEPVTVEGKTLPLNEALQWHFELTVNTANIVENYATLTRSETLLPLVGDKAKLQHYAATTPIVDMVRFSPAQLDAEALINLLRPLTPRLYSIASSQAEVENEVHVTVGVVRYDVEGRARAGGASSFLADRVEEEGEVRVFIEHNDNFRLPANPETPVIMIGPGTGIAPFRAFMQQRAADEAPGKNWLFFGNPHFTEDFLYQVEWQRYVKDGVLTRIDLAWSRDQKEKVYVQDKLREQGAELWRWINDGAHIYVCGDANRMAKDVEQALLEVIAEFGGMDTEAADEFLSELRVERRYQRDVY

Results are given in words; binding and its absence hold for the method and conditions named. Binding can be weak; no strength is given.

In this test the target is T1, sulfite reductase hemoprotein (HP), as in the minimal SiRFP/HP dimer (UniProt P17846).
T1 sequence: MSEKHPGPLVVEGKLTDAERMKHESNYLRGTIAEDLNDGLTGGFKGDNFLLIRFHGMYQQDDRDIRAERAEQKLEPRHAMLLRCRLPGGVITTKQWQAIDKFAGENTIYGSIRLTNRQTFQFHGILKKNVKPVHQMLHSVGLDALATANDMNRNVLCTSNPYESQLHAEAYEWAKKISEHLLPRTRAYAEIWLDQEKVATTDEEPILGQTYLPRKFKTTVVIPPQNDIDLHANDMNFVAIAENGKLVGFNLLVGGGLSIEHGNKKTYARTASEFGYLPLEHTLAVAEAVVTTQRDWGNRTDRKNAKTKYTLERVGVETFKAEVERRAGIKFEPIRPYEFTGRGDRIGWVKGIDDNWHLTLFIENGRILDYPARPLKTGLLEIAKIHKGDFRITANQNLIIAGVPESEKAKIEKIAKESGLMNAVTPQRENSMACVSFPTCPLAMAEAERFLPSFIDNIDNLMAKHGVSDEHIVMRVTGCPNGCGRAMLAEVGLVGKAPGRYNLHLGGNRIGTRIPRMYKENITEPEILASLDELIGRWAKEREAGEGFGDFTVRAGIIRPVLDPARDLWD
Kind of test: cryo-EM 2D class averages; SPOT-RASTR: SiRFP/HP at 0.2 mg/mL bound to Ni-NTA lipid nanotubes on the grid, plunge frozen; tube signal subtracted; 2D classes only, no 3D reconstruction; both purified.

Turning to “sulfite reductase flavoprotein (SiRFP), as in the minimal SiRFP/HP dimer (from UniProt P38038) (enzyme)”, the binding result is given as “binds”.
